Values from PubChem BioAssay AID504764 (Drosophila RNAi Screening Center, 2011)
Aim: 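Genome-wide screen for regulators of Notch-driven gene expression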 (primary screen). Cell system: Drosophila Kc167 cells. Reagents: long dsRNA against Drosophila genes. Duration: about 5 days (4 days dsRNA, then 24 h after transfection). Conditions: transfection of constitutively active membrane-tethered Notch lacking the extracellular domain, read 24 h later. Detection: 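Firefly luciferase from an E(spl)m3 reporter with active Notch, plus control-promoter and uninduced reporter wells for normalisation; unnormalised counts, duplicate wells a and b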. Scale: induced reporter light, run 1, well a and induced reporter light, run 1, well b: higher = more light from the Notch target reporter with active Notch; control promoter light, run 1, well a and control promoter light, run 1, well b: higher = more light from the viral control promoter (cell number, transfection, viability); uninduced reporter light, run 1, well a: higher = more light from the Notch target reporter without active Notch. Call rule: 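Hit if the duplicate-averaged log2 ratio of induced to control-promoter light gives a plate-wise z beyond ±2, or induced to uninduced beyond ±1.8; weak-control or discordant-duplicate wells dropped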. Calls: active = modifier hit (raised or lowered Notch signal); inactive = not a hit.
The deposit covers about 22,000 reagents; below is a random part of those with a known target gene and a result. Of all reagents, 403 (1.9%) got an active call. 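Unnormalised raw counts per well; ratio z-scores behind the hit calls and whether each hit raises or lowers signal are not deposited.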 The record does not give: the amount of reagent.

| gene | amplicon | induced reporter light, run 1, well a | induced reporter light, run 1, well b | control promoter light, run 1, well a | control promoter light, run 1, well b | uninduced reporter light, run 1, well a | activity call |
| --- | --- | --- | --- | --- | --- | --- | --- |
| Drep3 | DRSC06312 | 98220 | 96840 | 1.09e5 | 1.10e5 | 10535 | inactive |
| Drep3 | DRSC22344 | – | – | – | – | – | inactive |
| Msp300 | DRSC00854 | 1.28e5 | 1.20e5 | 1.57e5 | 1.41e5 | 8335 | inactive |
| Msp300 | DRSC00856 | 1.10e5 | 99325 | 1.66e5 | 1.39e5 | 8785 | inactive |
| Msp300 | DRSC00857 | 1.13e5 | 1.05e5 | 1.20e5 | 1.20e5 | 8685 | inactive |
| Msp300 | DRSC00858 | 86420 | 79535 | 1.11e5 | 1.10e5 | 6105 | inactive |
| Msp300 | DRSC02360 | 1.55e5 | 1.19e5 | 1.60e5 | 1.58e5 | 9515 | inactive |
| Msp300 | DRSC03369 | 1.74e5 | 1.57e5 | 1.53e5 | 1.81e5 | 16378 | inactive |
| Msp300 | DRSC03370 | 76180 | 72220 | 53445 | 62965 | 4075 | inactive |
| msi | DRSC17003 | 69880 | 66315 | 43925 | 45795 | 5440 | inactive |
| twz | DRSC04069 | 35235 | 28620 | 31610 | 25380 | 3360 | inactive |
| CG15628 | DRSC00256 | 2805 | 2600 | 3780 | 3340 | 2525 | inactive |
| CG15628 | DRSC00463 | 1.68e5 | 1.12e5 | 1.72e5 | 1.72e5 | 9732 | inactive |
| CCHa2 | DRSC14835 | 2.42e5 | 2.72e5 | 2.29e5 | 2.59e5 | 22020 | inactive |
| blot | DRSC09485 | 2.00e5 | 2.27e5 | 2.19e5 | 2.61e5 | 21670 | inactive |
| blot | DRSC11328 | 99685 | 1.17e5 | 72275 | 69600 | 7535 | inactive |
| CG16984 | DRSC08500 | 1.61e5 | 93695 | 1.65e5 | 1.57e5 | 7585 | inactive |

Copied from the list:
Value of CG16984 [DRSC08500] in “activity call”: inactive
Value for Msp300 [DRSC00858] in “induced reporter light, run 1, well b”: 79535
For “control promoter light, run 1, well b”, twz [DRSC04069] shows 25380

Further reagents:
| gene | amplicon | induced reporter light, run 1, well a | induced reporter light, run 1, well b | control promoter light, run 1, well a | control promoter light, run 1, well b | uninduced reporter light, run 1, well a | activity call |
| --- | --- | --- | --- | --- | --- | --- | --- |
| ImpE3 | DRSC16716 | 48645 | 51550 | 49125 | 44370 | 5865 | inactive |
| CG4269 | DRSC04457 | 1.90e5 | 2.00e5 | 1.86e5 | 1.62e5 | 15215 | inactive |
| crn | DRSC18184 | 53165 | 50160 | 59455 | 76380 | 3960 | inactive |
| crn | DRSC18185 | 1.04e5 | 1.01e5 | 1.67e5 | 1.33e5 | 6035 | inactive |
| crn | DRSC18755 | 34755 | 35195 | 44290 | 40320 | 2678 | inactive |
| hig | DRSC07628 | 2.32e5 | 1.96e5 | 2.17e5 | 2.01e5 | 16538 | inactive |
| CG15353 | DRSC00383 | 1.29e5 | 1.35e5 | 1.03e5 | 73310 | 9720 | inactive |
| mew | DRSC18971 | 83790 | 80075 | 1.05e5 | 94720 | 6600 | inactive |
| mew | DRSC20352 | 1.17e5 | 1.14e5 | 2.15e5 | 1.96e5 | 8585 | inactive |
| CG13895 | DRSC08365 | 1.68e5 | 1.16e5 | 2.13e5 | 2.10e5 | 7880 | inactive |
| tio | DRSC03739 | 41090 | 34185 | 45740 | 41045 | 3765 | inactive |
| CG10222 | DRSC09714 | 66505 | 68830 | 95010 | 71315 | 4728 | inactive |
| Clbn | DRSC14404 | 1.61e5 | 1.63e5 | 2.25e5 | 1.84e5 | 13850 | inactive |
| tgy | DRSC20045 | 73595 | 1.07e5 | 1.03e5 | 1.19e5 | 10605 | inactive |
| pea | DRSC07120 | 90775 | 1.08e5 | 1.07e5 | 96830 | 8700 | inactive |
| ZnT35C | DRSC01959 | 1.34e5 | 1.55e5 | 1.46e5 | 1.70e5 | 11235 | inactive |
| Elys | DRSC19571 | 1.19e5 | 1.44e5 | 1.01e5 | 66045 | 9840 | inactive |
| CG33702 | DRSC08986 | 1.74e5 | 1.92e5 | 1.87e5 | 2.24e5 | 13595 | inactive |
| CG10512 | DRSC11615 | 1.02e5 | 99125 | 1.01e5 | 75870 | 9345 | inactive |
| MCU | DRSC10339 | 2.23e5 | 1.58e5 | 2.50e5 | 1.62e5 | 12428 | inactive |
| CG8490 | DRSC07194 | 2.10e5 | 1.49e5 | 1.20e5 | 1.40e5 | 13705 | inactive |
| LanB1 | DRSC03360 | 77770 | 79330 | 57435 | 62880 | 5600 | inactive |
| CG3769 | DRSC02723 | 1.28e5 | 1.43e5 | 74815 | 92840 | 16425 | inactive |
| CG15385 | DRSC00399 | 1.37e5 | 1.20e5 | 1.04e5 | 74375 | 8740 | inactive |
| Tsp86D | DRSC15607 | 51810 | 64715 | 72480 | 48490 | 4260 | inactive |
| kz | DRSC18786 | 1.23e5 | 1.31e5 | 2.12e5 | 1.82e5 | 9025 | inactive |
| Hacd1 | DRSC02988 | 2.42e5 | 2.45e5 | 2.04e5 | 2.32e5 | 17460 | inactive |
| Aos1 | DRSC14113 | 1.09e5 | 83240 | 87780 | 64300 | 6680 | inactive |
| Or24a | DRSC00768 | 1.82e5 | 1.73e5 | 2.50e5 | 2.67e5 | 12132 | inactive |
| Rab39 | DRSC17827 | 1.44e5 | 1.47e5 | 2.29e5 | 2.91e5 | 10300 | inactive |
| VhaM9.7-b | DRSC11841 | 1.41e5 | 94005 | 1.13e5 | 81555 | 9200 | inactive |
| aus | DRSC13471 | 57310 | 43310 | 74365 | 41475 | 6170 | inactive |
| aus | DRSC13473 | 45330 | 38155 | 42950 | 33270 | 7910 | inactive |
| aus | DRSC15157 | 145 | 110 | 260 | 340 | 70 | inactive |
